In paper PMC3276509:
No constants are given. Whether binding was seen depends on the method and setting. Binding seen in cells or lysates may run through a third protein. Some results given as binding are weak or reduced against the parent protein; the word gives no strength.

By UniProt entry, the sequences of proteins in these tests, tags left out. Residues count along the entry.
UniProt P23818, residues 19-907: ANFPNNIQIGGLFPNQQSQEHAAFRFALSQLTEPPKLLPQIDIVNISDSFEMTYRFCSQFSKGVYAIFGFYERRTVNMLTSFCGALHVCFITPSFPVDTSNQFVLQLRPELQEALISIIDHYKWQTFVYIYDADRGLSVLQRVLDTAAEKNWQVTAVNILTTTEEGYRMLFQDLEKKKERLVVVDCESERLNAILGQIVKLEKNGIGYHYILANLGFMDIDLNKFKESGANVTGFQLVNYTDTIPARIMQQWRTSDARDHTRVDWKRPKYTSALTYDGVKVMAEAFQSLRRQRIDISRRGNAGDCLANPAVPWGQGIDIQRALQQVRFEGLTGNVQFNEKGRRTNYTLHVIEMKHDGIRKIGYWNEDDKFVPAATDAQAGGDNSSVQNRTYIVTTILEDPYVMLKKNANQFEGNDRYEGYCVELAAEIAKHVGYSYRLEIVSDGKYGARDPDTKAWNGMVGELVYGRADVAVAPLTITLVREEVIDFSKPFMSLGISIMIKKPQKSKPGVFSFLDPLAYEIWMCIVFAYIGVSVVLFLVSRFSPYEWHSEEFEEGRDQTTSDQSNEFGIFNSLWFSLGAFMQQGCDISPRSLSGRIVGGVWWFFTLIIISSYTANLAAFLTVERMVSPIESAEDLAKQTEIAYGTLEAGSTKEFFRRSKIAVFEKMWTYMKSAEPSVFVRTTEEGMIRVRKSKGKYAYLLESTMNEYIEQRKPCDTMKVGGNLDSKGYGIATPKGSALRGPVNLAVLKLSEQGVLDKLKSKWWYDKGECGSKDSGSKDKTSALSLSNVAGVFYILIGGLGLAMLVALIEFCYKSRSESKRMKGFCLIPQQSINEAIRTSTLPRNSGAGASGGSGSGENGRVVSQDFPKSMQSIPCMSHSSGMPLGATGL
UniProt Q811D0: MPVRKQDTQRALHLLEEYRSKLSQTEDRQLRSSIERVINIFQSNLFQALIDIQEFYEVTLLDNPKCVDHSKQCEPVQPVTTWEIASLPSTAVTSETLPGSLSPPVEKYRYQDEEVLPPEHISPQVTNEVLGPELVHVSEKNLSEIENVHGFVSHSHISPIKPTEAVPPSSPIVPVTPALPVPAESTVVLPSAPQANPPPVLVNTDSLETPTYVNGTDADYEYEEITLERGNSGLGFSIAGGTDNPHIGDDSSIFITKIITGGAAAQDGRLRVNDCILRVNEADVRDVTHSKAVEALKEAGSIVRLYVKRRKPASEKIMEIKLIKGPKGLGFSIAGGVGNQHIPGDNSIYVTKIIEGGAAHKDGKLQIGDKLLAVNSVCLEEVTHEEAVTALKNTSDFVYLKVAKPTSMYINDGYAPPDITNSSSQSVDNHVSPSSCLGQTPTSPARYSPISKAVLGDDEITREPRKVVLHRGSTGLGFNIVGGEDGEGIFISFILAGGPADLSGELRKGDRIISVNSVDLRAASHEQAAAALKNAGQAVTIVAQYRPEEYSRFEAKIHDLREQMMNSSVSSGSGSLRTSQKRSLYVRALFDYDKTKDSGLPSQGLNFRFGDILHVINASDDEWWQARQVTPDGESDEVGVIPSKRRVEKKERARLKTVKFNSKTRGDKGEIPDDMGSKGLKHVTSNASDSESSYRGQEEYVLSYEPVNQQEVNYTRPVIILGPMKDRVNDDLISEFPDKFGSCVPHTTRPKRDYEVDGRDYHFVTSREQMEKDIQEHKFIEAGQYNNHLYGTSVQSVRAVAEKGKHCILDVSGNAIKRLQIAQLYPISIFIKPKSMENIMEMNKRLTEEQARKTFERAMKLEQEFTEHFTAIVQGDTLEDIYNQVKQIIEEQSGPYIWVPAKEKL

T1: rapsyn (mouse (endogenous in primary myotubes, C57 mice)) (UniProt P12672)
T1 sequence: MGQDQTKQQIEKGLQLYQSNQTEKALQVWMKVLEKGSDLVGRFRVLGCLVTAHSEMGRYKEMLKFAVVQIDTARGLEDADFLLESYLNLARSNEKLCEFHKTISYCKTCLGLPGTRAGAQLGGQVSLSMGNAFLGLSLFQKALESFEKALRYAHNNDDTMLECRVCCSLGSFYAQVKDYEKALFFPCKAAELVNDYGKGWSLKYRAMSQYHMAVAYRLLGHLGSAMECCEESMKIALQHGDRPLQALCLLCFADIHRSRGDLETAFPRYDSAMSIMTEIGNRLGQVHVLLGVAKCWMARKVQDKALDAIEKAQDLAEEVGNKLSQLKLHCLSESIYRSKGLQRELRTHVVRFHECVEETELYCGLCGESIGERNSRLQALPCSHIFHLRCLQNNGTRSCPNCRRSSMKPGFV

B1: stargazin (protein, UniProt O88602 1-323)
chain: MGLFDRGVQMLLTTVGAFAAFSLMTIAVGTDYWLYSRGVCKTKSVSENETSKKNEEVMTHSGLWRTCCLEGNFKGLCKQIDHFPEDADYEADTAEYFLRAVRASSIFPILSVILLFMGGLCIAASEFYKTRHNIILSAGIFFVSAGLSNIIGIIVYISANAGDPSKSDSKKNSYSYGWSFYFGALSFIIAEMVGVLAVHMFIDRHKQLRATARATDYLQASAITRIPSYRYRYQRRSRSSSRSTEPSHSRDASPVGVKGFNTLPSTEISMYTLSRDPLKAATTPTATYNSDRDNSFLQVHNCIQKDSKDSLHANTANRRTTPV
B2: rapsyn (protein, UniProt P12672 1-412)
chain: MGQDQTKQQIEKGLQLYQSNQTEKALQVWMKVLEKGSDLVGRFRVLGCLVTAHSEMGRYKEMLKFAVVQIDTARGLEDADFLLESYLNLARSNEKLCEFHKTISYCKTCLGLPGTRAGAQLGGQVSLSMGNAFLGLSLFQKALESFEKALRYAHNNDDTMLECRVCCSLGSFYAQVKDYEKALFFPCKAAELVNDYGKGWSLKYRAMSQYHMAVAYRLLGHLGSAMECCEESMKIALQHGDRPLQALCLLCFADIHRSRGDLETAFPRYDSAMSIMTEIGNRLGQVHVLLGVAKCWMARKVQDKALDAIEKAQDLAEEVGNKLSQLKLHCLSESIYRSKGLQRELRTHVVRFHECVEETELYCGLCGESIGERNSRLQALPCSHIFHLRCLQNNGTRSCPNCRRSSMKPGFV

Assays:
[1] = biological target: T1, rapsyn (mouse (endogenous in primary myotubes, C57 mice)); experiment: co-IP; membrane extracts (40 ug, 1% NP40 buffer) of pure myotubes and of myotubes with cortical neurons seeded over them; precipitated with monoclonal anti-rapsyn antibody and protein A/G overnight at 4°C, washed with RIPA buffer, immunoblotted for GluR1, SAP97, stargazin and PSD95
[2] = biological target: GluR1 AMPA receptor subunit (mouse (endogenous in myotube-neuron cocultures, C57 mice)) (UniProt P23818); experiment: co-IP; membrane extracts (40 ug, 1% NP40 buffer) of pure myotubes and of myotubes with cortical neurons seeded over them; precipitated with rabbit anti-GluR1 antibody and protein A/G overnight at 4°C, washed with RIPA buffer, immunoblotted for rapsyn

Row | Molecule | binding [1] | binding [2]
1 | SAP97 (from UniProt Q811D0 1-905) | binds | –
2 | B1 | binds | –
3 | B2 | – | binds
